These results are taken from US7495098B2, “Extraction of alkaloids from opium” (Mallinckrodt Inc, priority 2004, dated 2009).

For series [1] the following is noted: pH greater than 6 in the presence of oxygen.
Series [2] can be described thus: Stability of alkaloids in the acid digest of opium suspension at pH 3.0, room temperature. The settings on record: pH 3.0, up to 96 hours.

With `CN1CC[C@]23c4c5ccc(O)c4O[C@H]2[C@@H](O)C=C[C@H]3[C@H]1C5` [Morphine, morphine], the Stability of morphine entry in series [1] is given as “very unstable”. In addition, the “Stability (loss of alkaloid) in solution” value in series [2] is “does not appear to be any significant loss”.
